Source: publication PMC3774380
A negative result means that nothing was seen under these conditions. For some of these results: The exact form of at least one protein or probe is not confirmed.

Chains of the proteins cited; added tags and fusions are not shown. Residues count along the entry.
UniProt P09681, 52-93: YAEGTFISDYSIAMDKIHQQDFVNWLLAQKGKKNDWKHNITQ
UniProt P01275, 98-127: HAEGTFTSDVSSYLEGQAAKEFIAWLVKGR
UniProt P01275, 146-178: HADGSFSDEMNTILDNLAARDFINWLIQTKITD
UniProt P01282, 81-122: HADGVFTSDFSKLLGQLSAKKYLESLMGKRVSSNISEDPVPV

How the values were obtained:
Assay in all cases: SPR
Conditions in all cases: all L-nucleotides; ribonucleotides at positions 5, 11, 14, 15, 25, 26, rest deoxy; 5' aminohexyl-40 kDa PEG; Selection buffer: 20 mM Tris pH 7.4, 150 mM NaCl, 5 mM KCl, 1 mM MgCl2, 1 mM CaCl2, 0.1% Tween 20, 0.1% CHAPS, 100 ug/ml HSA, 10 ug/ml yeast RNA, 37 C; synthetic backbone
[1] = biological target: gastric-inhibitory peptide (GIP) (UniProt P09681)
[2] = biological target: glucagon-like peptide-1 (GLP-1) (UniProt P01275)
[3] = biological target: glucagon-like peptide-2 (GLP-2) (UniProt P01275)
[4] = biological target: prepro-vasoactive intestinal peptide (prepro-VIP) (UniProt P01282)

Measured: binding result

GCGGGAAATGGGAGGGCTAGGTGGAAGGAATCTGAGCGC [NOX-G15]
no binding: all assays above
